Values from PubChem BioAssay AID1259405 (NCATS, 2018).
Purpose: 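Silenced genes that increase secreted GFP made by CHO cells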 (primary screen). Cells: Chinese hamster CHO-K1 ovary cells with stable secreted eGFP expression. Reagent: single siRNA against mouse genes, 0.8 pmol siRNA per well (2 µl of 400 nM stock). Timing: 3 days. Read-out: 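Percent of the per-plate non-targeting control median for intracellular GFP per well by laser scanning cytometry and for cell viability by ATP luminescence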. Reading the numbers: GFP, % of control: higher = more GFP per well, higher productivity; viability (ATP), % of control: higher = more viable cells (more ATP). Call rule: 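Called active when intracellular GFP, relative to negative control, is at or above 120%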.
The deposit covers about 50,000 reagents; shown is a part drawn at random. Of all reagents, about 4,000 (8%) were called active. 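Mouse siRNA library applied to hamster cells; one well for each siRNA.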 Unmarked entries are inactive. Reagents against one gene are numbered here. No sequences are given here.

| gene | reagent | GFP, % of control | viability (ATP), % of control |
| --- | --- | --- | --- |
| Slc17a4 | 1 | 70.6 | 110 |
| Slc17a4 | 2 | 45.7 | 43.3 |
| Slc17a4 | 3 | 94.6 | 107 |
| Abhd5 (abhydrolase domain containing 5) | 1 | 78 | 53 |
| Abhd5 (abhydrolase domain containing 5) | 2 | 121 (active) | 86 |
| Abhd5 (abhydrolase domain containing 5) | 3 | 49.9 | 46.4 |
| Smim8 (small integral membrane protein 8) | 1 | 63.7 | 71.9 |
| Smim8 (small integral membrane protein 8) | 2 | 30.9 | 34 |
| Smim8 (small integral membrane protein 8) | 3 | 78.7 | 80.4 |
| Ect2 (epithelial cell transforming 2) | 1 | 72.4 | 77.1 |
| Ect2 (epithelial cell transforming 2) | 2 | 82 | 64.1 |
| Cnga1 (cyclic nucleotide gated channel alpha 1) | 1 | 59.3 | 81.7 |
| Cnga1 (cyclic nucleotide gated channel alpha 1) | 2 | 88.7 | 101 |
| Cnga1 (cyclic nucleotide gated channel alpha 1) | 3 | 61 | 64.5 |
| Cyp17a1 (cytochrome P450, family 17, subfamily a, polypeptide 1) | 1 | 79.1 | 97.7 |
| Cyp17a1 (cytochrome P450, family 17, subfamily a, polypeptide 1) | 2 | 91.9 | 73.1 |
| Cyp17a1 (cytochrome P450, family 17, subfamily a, polypeptide 1) | 3 | 63.3 | 61.1 |
| Or2g25 (olfactory receptor family 2 subfamily G member 25) | 1 | 146 (active) | 68 |
| Or2g25 (olfactory receptor family 2 subfamily G member 25) | 2 | 93.1 | 86 |
| Or2g25 (olfactory receptor family 2 subfamily G member 25) | 3 | 74.2 | 85.9 |
| Cartpt (CART prepropeptide) | 1 | 80.6 | 81.6 |
| Cartpt (CART prepropeptide) | 2 | 72.1 | 54.3 |
| Cartpt (CART prepropeptide) | 3 | 90.2 | 113 |
| Or52ab4 (olfactory receptor family 52 subfamily AB member 4) | 1 | 59.5 | 63.1 |
| Or52ab4 (olfactory receptor family 52 subfamily AB member 4) | 2 | 119 | 80.8 |
| Or52ab4 (olfactory receptor family 52 subfamily AB member 4) | 3 | 42.3 | 67.1 |
| Vkorc1l1 (vitamin K epoxide reductase complex, subunit 1-like 1) | 1 | 49.3 | 30.7 |
| Vkorc1l1 (vitamin K epoxide reductase complex, subunit 1-like 1) | 2 | 91.6 | 72.2 |
| Vkorc1l1 (vitamin K epoxide reductase complex, subunit 1-like 1) | 3 | 82.3 | 70.8 |
| Npc1 (NPC intracellular cholesterol transporter 1) | 1 | 49.2 | 77.2 |
| Npc1 (NPC intracellular cholesterol transporter 1) | 2 | 85.8 | 76.4 |
| Npc1 (NPC intracellular cholesterol transporter 1) | 3 | 65.2 | 56.2 |
| Lrrtm2 (leucine rich repeat transmembrane neuronal 2) | 1 | 91.3 | 110 |
| Lrrtm2 (leucine rich repeat transmembrane neuronal 2) | 2 | 72 | 83.5 |
| Lrrtm2 (leucine rich repeat transmembrane neuronal 2) | 3 | 88.7 | 94.8 |
| Mtg2 (mitochondrial ribosome associated GTPase 2) | 1 | 71.1 | 72.4 |
| Mtg2 (mitochondrial ribosome associated GTPase 2) | 2 | 80.4 | 84.6 |
| Mtg2 (mitochondrial ribosome associated GTPase 2) | 3 | 106 | 109 |
| Phtf2 (putative homeodomain transcription factor 2) | 1 | 84.6 | 113 |
| Phtf2 (putative homeodomain transcription factor 2) | 2 | 77.3 | 95.4 |
| Phtf2 (putative homeodomain transcription factor 2) | 3 | 64 | 78.6 |
| Ewsr1 (Ewing sarcoma breakpoint region 1) | 1 | 66.6 | 85.2 |
| Ewsr1 (Ewing sarcoma breakpoint region 1) | 2 | 54.5 | 53 |
| Ewsr1 (Ewing sarcoma breakpoint region 1) | 3 | 86.4 | 83.1 |
| Zbtb24 (zinc finger and BTB domain containing 24) | 1 | 61.9 | 67.4 |
| Zbtb24 (zinc finger and BTB domain containing 24) | 2 | 82.7 | 73.8 |
| Zbtb24 (zinc finger and BTB domain containing 24) | 3 | 97.3 | 116 |
| Mrpl40 (mitochondrial ribosomal protein L40) | 1 | 77.5 | 62.4 |
| Mrpl40 (mitochondrial ribosomal protein L40) | 2 | 72.6 | 90.3 |
| Mrpl40 (mitochondrial ribosomal protein L40) | 3 | 78.6 | 56.1 |
| Pde1b (phosphodiesterase 1B, Ca2+-calmodulin dependent) | 1 | 87.6 | 91.9 |
| Pde1b (phosphodiesterase 1B, Ca2+-calmodulin dependent) | 2 | 83.9 | 78.9 |
| Pde1b (phosphodiesterase 1B, Ca2+-calmodulin dependent) | 3 | 68.4 | 65.8 |
| Eny2 (ENY2 transcription and export complex 2 subunit) | 1 | 74.8 | 80.1 |
| Eny2 (ENY2 transcription and export complex 2 subunit) | 2 | 78.7 | 79.5 |
| Eny2 (ENY2 transcription and export complex 2 subunit) | 3 | 53.1 | 58.4 |
| Ttyh1 (tweety family member 1) | 1 | 38.1 | 63.1 |
| Ttyh1 (tweety family member 1) | 2 | 115 | 96.1 |
| Ttyh1 (tweety family member 1) | 3 | 143 (active) | 131 |
